# Experimental data as given in PubChem BioAssay (NCATS).
# The shares of active, inactive and inconclusive entries below differ from those in the screen. Where the call is inconclusive, the potency comes from a doubtful curve fit. Calls of active or inactive are those of the source. Calls come from the whole dose curve; as a rule, active = well fitted curve in the direction sought with a large enough effect; inconclusive = small, poorly fitted or top-dose-only effect, or another doubt; inactive = no such curve, though single readings can be large; an effect the other way counts as inactive or inconclusive.
# Columns and labels:
# [1] = Quantitative High-Throughput drug screen in 47 multiple myeloma cell lines against the NCATS MIPE library collection: KMS20_JCRB cell viability assay (AID 1918973); details: CellTiter-Glo ATP, 48 h; viability (% of DMSO): at 45.8 µM (top of the series); note: nearly all actives have a fitted effect of over 45% in size
# Outline: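 Primary qHTS used for cherry-picking: cells at 500/well, library compounds for 48 h (37C, 5% CO2), luminescent ATP assay.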
# [2] = Quantitative High-Throughput drug screen in 47 multiple myeloma cell lines against the NCATS MIPE library collection: KMS26_JCRB cell viability assay (AID 1918975); details: KMS26 myeloma cells viability, CellTiter-Glo ATP, 48 h; viability (% of DMSO): at 45.8 µM (top of the series); note: nearly all actives have a fitted effect of over 45% in size
# Outline: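 Approved and investigational drugs from MIPE 4.0 were added by pin tool to 500 cells per well. After 48 hours at 37C, ATP-based CellTiter-Glo luminescence indicated remaining viability.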
# [3] = Quantitative High-Throughput drug screen in 47 multiple myeloma cell lines against the NCATS MIPE library collection: MOLP8_DSMZ cell viability assay (AID 1918977); details: MOLP8 myeloma viability, CellTiter-Glo ATP luminescence, 48 h; viability (% of control): at 45.8 µM (top of the series); note: nearly all actives have a fitted effect of over 45% in size
# Outline: (§1)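 Inhibition of viability over 48 h was scored by ATP content (CellTiter-Glo) in 500-cell wells. Zero and full viability were defined by media-only and DMSO-only wells.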
# [4] = Quantitative High-Throughput drug screen in 47 multiple myeloma cell lines against the NCATS MIPE library collection: OCIMY1_PLB cell viability assay (AID 1918979); details: OCI-MY1 myeloma viability, CellTiter-Glo ATP, 48 h; viability: at 45.8 µM (top of the series) unless noted; note: nearly all actives have a fitted effect of over 35% in size
# Outline: as §1
# [5] = Quantitative High-Throughput drug screen in 47 multiple myeloma cell lines against the NCATS MIPE library collection: MM1S_ATCC cell viability assay (AID 1918980); note: nearly all actives have a fitted effect of over 45% in size
# Outline: as §1
# [6] = Quantitative High-Throughput drug screen in 47 multiple myeloma cell lines against the NCATS MIPE library collection: MM1R_ATCC cell viability assay (AID 1918981); note: nearly all actives have a fitted effect of over 35% in size
# Outline: as §1
# [7] = Quantitative High-Throughput drug screen in 47 multiple myeloma cell lines against the NCATS MIPE library collection: LP1_DSMZ cell viability assay (AID 1918982); details: LP1 myeloma viability, CellTiter-Glo ATP luminescence, 48 h; viability (% of control): at 45.8 µM (top of the series); note: nearly all actives have a fitted effect of over 35% in size
# Outline: as §1
# [8] = Quantitative High-Throughput drug screen in 47 multiple myeloma cell lines against the NCATS MIPE library collection: KMS28PE_JCRB cell viability assay (AID 1918983); note: nearly all actives have a fitted effect of over 35% in size
# Outline: as §1
# [9] = Quantitative High-Throughput drug screen in 47 multiple myeloma cell lines against the NCATS MIPE library collection: L363_DSMZ cell viability assay (AID 1918984); details: L363 myeloma viability, CellTiter-Glo ATP luminescence, 48 h; viability (% of control): at 45.8 µM (top of the series); note: nearly all actives have a fitted effect of over 40% in size
# Outline: as §1
# [10] = Quantitative High-Throughput drug screen in 47 multiple myeloma cell lines against the NCATS MIPE library collection: KMS34_JCRB cell viability assay (AID 1918985); details: KMS34 myeloma viability, CellTiter-Glo ATP luminescence, 48 h; series mostly up to 45.8 µM; note: nearly all actives have a fitted effect of over 40% in size
# Outline: as §1
# [11] = Quantitative High-Throughput drug screen in 47 multiple myeloma cell lines against the NCATS MIPE library collection: OCIMY7_PLB cell viability assay (AID 1918987); details: OCI-MY7 myeloma viability, CellTiter-Glo ATP, 48 h; viability (% of DMSO): at 45.8 µM (top of the series); note: nearly all actives have a fitted effect of over 65% in size
# Outline: as §1
# [12] = Quantitative High-Throughput drug screen in 47 multiple myeloma cell lines against the NCATS MIPE library collection: SKMM1_PLB cell viability assay (AID 1919863); details: SKMM1 myeloma viability, CellTiter-Glo ATP, 48 h; viability: stronger effect = lower value; note: nearly all actives have a fitted effect of over 35% in size
# Outline: as §1
# [13] = Quantitative High-Throughput drug screen in 47 multiple myeloma cell lines against the NCATS MIPE library collection: U266_ATCC cell viability assay (AID 1919864); details: U266 myeloma viability, CellTiter-Glo ATP luminescence, 48 h; series mostly up to 45.8 µM; note: nearly all actives have a fitted effect of over 35% in size
# Outline: as §1
# [14] = Quantitative High-Throughput drug screen in 47 multiple myeloma cell lines against the NCATS MIPE library collection: XG6_PLB cell viability assay (AID 1919865); details: XG6 myeloma viability, CellTiter-Glo ATP luminescence, 48 h; viability (% of control): at 45.8 µM (top of the series); note: nearly all actives have a fitted effect of over 40% in size
# Outline: as §1
# [15] = Quantitative High-Throughput drug screen in 47 multiple myeloma cell lines against the NCATS MIPE library collection: XG1_PLB cell viability assay (AID 1919866); details: CellTiter-Glo ATP, 48 h; viability: at 45.8 µM (top of the series); note: nearly all actives have a fitted effect of over 35% in size
# Outline: as §1
# [16] = Quantitative High-Throughput drug screen in 47 multiple myeloma cell lines against the NCATS MIPE library collection: NCIH929_DSMZ cell viability assay (AID 1918978); note: nearly all actives have a fitted effect of over 35% in size
# Outline: as §1
# [17] = Quantitative High-Throughput drug screen in 47 multiple myeloma cell lines against the NCATS MIPE library collection: OCIMY5_PLB cell viability assay (AID 1918988); details: OCI-MY5 myeloma viability, ATP luminescence, 48 h; series mostly up to 45.8 µM; note: nearly all actives have a fitted effect of over 65% in size
# Outline: as §1
# [18] = Quantitative High-Throughput drug screen in 47 multiple myeloma cell lines against the NCATS MIPE library collection: OPM1_PLB cell viability assay (AID 1918989); note: nearly all actives have a fitted effect of over 40% in size
# Outline: as §1
# [19] = Quantitative High-Throughput drug screen in 47 multiple myeloma cell lines against the NCATS MIPE library collection: MMM1_PLB cell viability assay (AID 1918976); note: nearly all actives have a fitted effect of over 35% in size
# Outline: as §1
# Potency is the fitted concentration of half-maximal effect.
SMILES,Potency [1],Potency [2],Potency [3],Potency [4],Potency [5],Potency [6],Potency [7],Potency [8],Potency [9],Potency [10],Potency [11],Potency [12],Potency [13],Potency [14],Potency [15],Potency [16],Potency [17],Potency [18],Potency [19]
C#CCN(C)CC1=Cc2ccccc2Oc2ccccc21,"inconclusive: 0.0023 µM [rising, full curve, poor fit]","inconclusive: 33.2 µM [cytotoxic, single point]",inactive,inactive,"inconclusive: 29.6 µM [cytotoxic, single point]","inconclusive: 2.35 µM [cytotoxic, partial curve, poor fit]","inconclusive: 23.5 µM [cytotoxic, single point]",active: 18.7 µM,"inconclusive: 20.9 µM [rising, single point]","inconclusive: 18.7 µM [cytotoxic, partial curve, poor fit]","inconclusive: 0.0047 µM [rising, full curve, poor fit]","inconclusive: 33.2 µM [cytotoxic, single point]","inconclusive: 20.9 µM [cytotoxic, single point]",inactive,inactive,–,–,–,–
CC=C1NC(=O)[C@H]2CSSCCC=C[C@H](CC(=O)N[C@H](C(C)C)C(=O)N2)OC(=O)[C@H](C(C)C)NC1=O,active: 0.0209 µM,"inconclusive: 0.0296 µM [cytotoxic, full curve, poor fit]",–,–,–,–,–,–,active: 0.0066 µM,–,–,–,–,–,–,–,–,–,–
CCc1cc(C(C)=NOCc2ccc(C3CCCCC3)c(C(F)(F)F)c2)ccc1CN1CC(C(=O)O)C1,"inconclusive: 23.5 µM [cytotoxic, single point]","inconclusive: 37.2 µM [cytotoxic, single point]",inactive,–,inactive,"inconclusive: 33.2 µM [cytotoxic, single point]","inconclusive: 26.4 µM [cytotoxic, single point]","inconclusive: 37.2 µM [cytotoxic, single point]","inconclusive: 0.332 µM [cytotoxic, full curve, poor fit]","inconclusive: 37.2 µM [cytotoxic, single point]",–,–,inactive,"inconclusive: 10.5 µM [cytotoxic, full curve]","inconclusive: 9.35 µM [cytotoxic, full curve, poor fit]","inconclusive: 33.2 µM [cytotoxic, single point]","inconclusive: 33.2 µM [cytotoxic, single point]",–,–
c1cncc(CN2CCC(n3ncc4c(N5CCOCC5)nc(-c5ccc6[nH]ccc6c5)nc43)CC2)c1,active: 1.18 µM,active: 4.69 µM,active: 2.96 µM,–,–,–,active: 5.9 µM,–,"inconclusive: 0.332 µM [cytotoxic, full curve, poor fit]",active: 5.9 µM,active: 9.35 µM,–,–,–,–,–,active: 13.2 µM,active: 2.64 µM,–
CCCCCN(C)CCC(O)(P(=O)(O)O)P(=O)(O)O,"inconclusive: 20.9 µM [rising, partial curve, poor fit]",–,"inconclusive: 0.0023 µM [rising, full curve, poor fit]",–,inactive,"inconclusive: 0.0037 µM [rising, full curve]",inactive,"inconclusive: 0.003 µM [rising, full curve, poor fit]",inactive,–,inactive,"inconclusive: 0.0059 µM [rising, full curve, poor fit]",inactive,inactive,inactive,inactive,–,inactive,"inconclusive: 0.0042 µM [rising, full curve]"
NCC(=O)Nc1ccc(-n2nc(C(F)(F)F)cc2-c2ccc3c(ccc4ccccc43)c2)cc1,active: 9.35 µM,"inconclusive: 33.2 µM [cytotoxic, single point]","inconclusive: 33.2 µM [cytotoxic, single point]","inconclusive: 33.2 µM [cytotoxic, single point]","inconclusive: 33.2 µM [cytotoxic, single point]","inconclusive: 33.2 µM [cytotoxic, single point]",–,–,"inconclusive: 1.18 µM [cytotoxic, full curve, poor fit]","inconclusive: 29.6 µM [cytotoxic, single point]",–,active: 37.2 µM,active: 20.9 µM,–,–,–,–,–,–
CCCCCCOC(=O)N=C(N)c1ccc(NCc2nc3cc(C(=O)N(CCC(=O)OCC)c4ccccn4)ccc3n2C)cc1,"inconclusive: 14.8 µM [cytotoxic, partial curve, poor fit]","inconclusive: 33.2 µM [cytotoxic, single point]",active: 20.9 µM,"inconclusive: 33.2 µM [cytotoxic, single point]","inconclusive: 33.2 µM [cytotoxic, single point]",active: 20.9 µM,active: 14.8 µM,"inconclusive: 23.5 µM [cytotoxic, single point]",–,"inconclusive: 20.9 µM [cytotoxic, partial curve]","inconclusive: 29.6 µM [cytotoxic, partial curve, poor fit]","inconclusive: 20.9 µM [cytotoxic, single point]","inconclusive: 0.0047 µM [rising, full curve, poor fit]",–,"inconclusive: 23.5 µM [cytotoxic, partial curve]","inconclusive: 29.6 µM [cytotoxic, single point]",–,"inconclusive: 37.2 µM [cytotoxic, single point]",–
